Data source: PubChem BioAssay AID1259254 (NCATS, 2017)
Screen: 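Gene knock-downs that lead to re-replication, shown by excess G2 DNA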 (primary screen). Cell system: human HCT116 colorectal cancer cells. Reagent: single siRNA against human genes. Time to read-out: 3 days. Read-out: 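Nuclei stained with Hoechst and imaged; cell-cycle phase assigned by DNA content; G2 share scaled per plate, non-targeting siRNA 0%, GMNN siRNA 100%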. Scale: G2 robust z-score and G2 cells, % of GMNN control: higher = more G2 cells, more excess DNA replication. Active means: 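An siRNA counts as active if its G2 robust z-score lies at least 5 MADs above the screen median; here such calls match roughly 38% of GMNN control or more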.
The deposit covers about 59,000 reagents; shown is an unselected part. About 1,550 of all reagents (2.6%) were called active. 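G2 share is only a proxy for re-replication; each gene was hit by three separate siRNAs, and active genes were retested.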 Unmarked entries are inactive. The numbers tell different reagents against one gene apart. Further read-outs or replicates are left out here. Not stated in the record: the amount of reagent.

no.	gene symbol	siRNA no.	G2 robust z-score	G2 cells, % of GMNN control
1	CNKSR3 (GeneID 154043)	1	-0.848	-3
2	CNKSR3 (GeneID 154043)	2	-1.35	-6.55
3	CNKSR3 (GeneID 154043)	3	-1.49	-7.48
4	KRCC1 (GeneID 51315)	1	0.0854	3.57
5	KRCC1 (GeneID 51315)	2	-1.14	-5.08
6	KRCC1 (GeneID 51315)	3	-0.203	1.54
7	ACTR5 (GeneID 79913)	1	1.54	13.8
8	ACTR5 (GeneID 79913)	2	-0.945	-3.68
9	ACTR5 (GeneID 79913)	3	0.807	8.65
10	DISP3 (GeneID 57540)	1	0.417	5.9
11	DISP3 (GeneID 57540)	2	0.135	3.92
12	DISP3 (GeneID 57540)	3	-0.909	-3.43
13	ZSWIM3 (GeneID 140831)	1	-0.196	1.59
14	ZSWIM3 (GeneID 140831)	2	0.335	5.32
15	ZSWIM3 (GeneID 140831)	3	-0.646	-1.58
16	PRKCB (GeneID 5579)	1	-0.926	-3.55
17	PRKCB (GeneID 5579)	2	-1.21	-5.57
18	PRKCB (GeneID 5579)	3	-1.17	-5.26
19	IZUMO2 (GeneID 126123)	1	-0.14	1.98
20	IZUMO2 (GeneID 126123)	2	0.187	4.28
21	IZUMO2 (GeneID 126123)	3	0.173	4.19
22	FAM66C (GeneID 440078)	1	4.07	31.6
23	FAM66C (GeneID 440078)	2	1.66	14.7
24	FAM66C (GeneID 440078)	3	2.9	23.4
25	ALG13 (GeneID 79868)	1	1.21	11.5
26	ALG13 (GeneID 79868)	2	0.506	6.53
27	ALG13 (GeneID 79868)	3	-0.102	2.25
28	ALG13 (GeneID 79868)	4	1.19	11.4
29	ALG13 (GeneID 79868)	5	0.293	5.03
30	ALG13 (GeneID 79868)	6	-0.426	-0.0305
31	ALG13 (GeneID 79868)	7	-0.707	-2.01
32	ALG13 (GeneID 79868)	8	-0.804	-2.69
33	ALG13 (GeneID 79868)	9	-0.517	-0.67
34	CDC27 (GeneID 996)	1	4.63	35.6
35	CDC27 (GeneID 996)	2	6.22 (active)	46.7
36	CDC27 (GeneID 996)	3	4.24	32.8
37	CCDC50 (GeneID 152137)	1	0.336	5.33
38	CCDC50 (GeneID 152137)	2	1.81	15.7
39	CCDC50 (GeneID 152137)	3	3.32	26.3
40	SERPINB6 (GeneID 5269)	1	1.15	11.1
41	SERPINB6 (GeneID 5269)	2	-0.601	-1.26
42	SERPINB6 (GeneID 5269)	3	-0.644	-1.57
43	FBXW9 (GeneID 84261)	1	-1.58	-8.15
44	FBXW9 (GeneID 84261)	2	-0.98	-3.93
45	FBXW9 (GeneID 84261)	3	-0.789	-2.58
46	TGFBR2 (GeneID 7048)	1	-0.234	1.32
47	TGFBR2 (GeneID 7048)	2	-0.941	-3.65
48	TGFBR2 (GeneID 7048)	3	0.919	9.44
49	CNIH2 (GeneID 254263)	1	-0.947	-3.7
50	CNIH2 (GeneID 254263)	2	0.784	8.49
51	CNIH2 (GeneID 254263)	3	1.09	10.6
52	MAGED4B (GeneID 81557)	1	-0.208	1.5
53	MAGED4B (GeneID 81557)	2	-0.736	-2.21
54	MAGED4B (GeneID 81557)	3	-0.254	1.18
55	ARHGEF4 (GeneID 50649)	1	-0.263	1.11
56	ARHGEF4 (GeneID 50649)	2	1.92	16.5
57	ARHGEF4 (GeneID 50649)	3	-0.632	-1.48
58	KRTAP13-3 (GeneID 337960)	1	0.428	5.98
59	KRTAP13-3 (GeneID 337960)	2	-0.378	0.307
60	KRTAP13-3 (GeneID 337960)	3	-0.834	-2.9
61	SLC22A4 (GeneID 6583)	1	4.57	35.1
62	SLC22A4 (GeneID 6583)	2	1.19	11.3
63	SLC22A4 (GeneID 6583)	3	5.91 (active)	44.5
64	CCDC107 (GeneID 203260)	1	0.612	7.27
65	CCDC107 (GeneID 203260)	2	-0.494	-0.505
66	CCDC107 (GeneID 203260)	3	-0.452	-0.212
67	ARK2C (GeneID 494470)	1	1.65	14.6
68	ARK2C (GeneID 494470)	2	-0.428	-0.0474
69	ARK2C (GeneID 494470)	3	-0.363	0.41
70	SNORC (GeneID 389084)	1	0.0784	3.52
71	SNORC (GeneID 389084)	2	-0.465	-0.302
72	SNORC (GeneID 389084)	3	1.31	12.2
73	NR0B1 (GeneID 190)	1	-0.352	0.487
74	NR0B1 (GeneID 190)	2	0.272	4.88
75	NR0B1 (GeneID 190)	3	0.858	9.01
76	TIMM50 (GeneID 92609)	1	-0.671	-1.75
77	TIMM50 (GeneID 92609)	2	-0.515	-0.658
78	TIMM50 (GeneID 92609)	3	1.67	14.7
79	PODN (GeneID 127435)	1	0.194	4.33
80	PODN (GeneID 127435)	2	0.0464	3.29
81	PODN (GeneID 127435)	3	-0.352	0.494
82	LINGO2 (GeneID 158038)	1	-0.257	1.16
83	LINGO2 (GeneID 158038)	2	1.25	11.8
84	LINGO2 (GeneID 158038)	3	3.45	27.3
85	EIF3H (GeneID 8667)	1	-0.0662	2.5
86	EIF3H (GeneID 8667)	2	-0.673	-1.77
87	EIF3H (GeneID 8667)	3	-0.156	1.87

Targets listed so far whose gene name starts with F or f (6):
gene symbol	siRNA no.	G2 robust z-score	G2 cells, % of GMNN control
FAM66C (GeneID 440078)	1	4.07	31.6
FAM66C (GeneID 440078)	2	1.66	14.7
FAM66C (GeneID 440078)	3	2.9	23.4
FBXW9 (GeneID 84261)	1	-1.58	-8.15
FBXW9 (GeneID 84261)	2	-0.98	-3.93
FBXW9 (GeneID 84261)	3	-0.789	-2.58
